The record followed here is the supplement of paper PMC6411743.

Amino acid sequences for entries named in this document (tags omitted). A change or cut given only in a name is not applied to a line headed by its entry.
UniProt Q9BY43: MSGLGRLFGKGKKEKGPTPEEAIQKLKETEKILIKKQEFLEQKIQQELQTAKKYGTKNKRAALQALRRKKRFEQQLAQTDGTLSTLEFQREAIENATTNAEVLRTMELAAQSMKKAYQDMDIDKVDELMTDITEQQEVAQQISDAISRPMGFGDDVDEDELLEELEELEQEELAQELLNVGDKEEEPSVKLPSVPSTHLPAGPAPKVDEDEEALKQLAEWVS
UniProt Q9BYX2: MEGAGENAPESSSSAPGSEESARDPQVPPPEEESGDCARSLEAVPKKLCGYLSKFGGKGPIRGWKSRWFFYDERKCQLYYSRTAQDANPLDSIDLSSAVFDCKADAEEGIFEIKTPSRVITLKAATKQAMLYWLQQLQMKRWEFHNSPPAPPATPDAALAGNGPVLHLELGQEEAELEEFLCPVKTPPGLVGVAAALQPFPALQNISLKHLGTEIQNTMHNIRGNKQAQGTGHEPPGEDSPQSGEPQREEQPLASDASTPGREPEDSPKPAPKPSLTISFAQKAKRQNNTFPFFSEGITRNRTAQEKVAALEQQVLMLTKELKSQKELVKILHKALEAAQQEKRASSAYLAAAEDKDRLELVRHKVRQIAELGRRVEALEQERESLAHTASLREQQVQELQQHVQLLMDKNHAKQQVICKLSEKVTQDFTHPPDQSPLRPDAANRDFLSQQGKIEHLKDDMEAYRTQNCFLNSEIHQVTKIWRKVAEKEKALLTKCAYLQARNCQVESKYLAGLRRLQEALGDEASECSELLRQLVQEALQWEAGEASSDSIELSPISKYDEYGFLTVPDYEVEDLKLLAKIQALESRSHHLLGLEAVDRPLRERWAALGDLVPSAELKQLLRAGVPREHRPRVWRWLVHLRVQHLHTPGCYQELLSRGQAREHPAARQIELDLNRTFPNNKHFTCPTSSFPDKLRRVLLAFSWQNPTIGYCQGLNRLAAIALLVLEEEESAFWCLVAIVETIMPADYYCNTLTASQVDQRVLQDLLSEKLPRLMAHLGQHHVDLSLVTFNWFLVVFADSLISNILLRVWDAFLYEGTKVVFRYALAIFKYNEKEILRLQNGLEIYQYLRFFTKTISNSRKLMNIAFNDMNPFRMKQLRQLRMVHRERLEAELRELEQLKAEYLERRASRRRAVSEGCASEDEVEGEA
UniProt Q99538: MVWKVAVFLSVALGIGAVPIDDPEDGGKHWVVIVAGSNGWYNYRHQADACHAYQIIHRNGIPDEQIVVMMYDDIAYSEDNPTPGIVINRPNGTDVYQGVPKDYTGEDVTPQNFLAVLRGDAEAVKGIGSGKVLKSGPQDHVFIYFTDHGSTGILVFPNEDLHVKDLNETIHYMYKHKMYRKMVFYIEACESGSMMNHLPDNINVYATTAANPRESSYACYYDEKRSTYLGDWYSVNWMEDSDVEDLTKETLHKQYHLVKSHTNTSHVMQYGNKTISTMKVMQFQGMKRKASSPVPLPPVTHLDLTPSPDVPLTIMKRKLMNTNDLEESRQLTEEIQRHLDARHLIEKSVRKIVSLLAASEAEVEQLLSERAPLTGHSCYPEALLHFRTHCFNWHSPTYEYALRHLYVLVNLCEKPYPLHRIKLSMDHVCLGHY
UniProt Q9BVI0: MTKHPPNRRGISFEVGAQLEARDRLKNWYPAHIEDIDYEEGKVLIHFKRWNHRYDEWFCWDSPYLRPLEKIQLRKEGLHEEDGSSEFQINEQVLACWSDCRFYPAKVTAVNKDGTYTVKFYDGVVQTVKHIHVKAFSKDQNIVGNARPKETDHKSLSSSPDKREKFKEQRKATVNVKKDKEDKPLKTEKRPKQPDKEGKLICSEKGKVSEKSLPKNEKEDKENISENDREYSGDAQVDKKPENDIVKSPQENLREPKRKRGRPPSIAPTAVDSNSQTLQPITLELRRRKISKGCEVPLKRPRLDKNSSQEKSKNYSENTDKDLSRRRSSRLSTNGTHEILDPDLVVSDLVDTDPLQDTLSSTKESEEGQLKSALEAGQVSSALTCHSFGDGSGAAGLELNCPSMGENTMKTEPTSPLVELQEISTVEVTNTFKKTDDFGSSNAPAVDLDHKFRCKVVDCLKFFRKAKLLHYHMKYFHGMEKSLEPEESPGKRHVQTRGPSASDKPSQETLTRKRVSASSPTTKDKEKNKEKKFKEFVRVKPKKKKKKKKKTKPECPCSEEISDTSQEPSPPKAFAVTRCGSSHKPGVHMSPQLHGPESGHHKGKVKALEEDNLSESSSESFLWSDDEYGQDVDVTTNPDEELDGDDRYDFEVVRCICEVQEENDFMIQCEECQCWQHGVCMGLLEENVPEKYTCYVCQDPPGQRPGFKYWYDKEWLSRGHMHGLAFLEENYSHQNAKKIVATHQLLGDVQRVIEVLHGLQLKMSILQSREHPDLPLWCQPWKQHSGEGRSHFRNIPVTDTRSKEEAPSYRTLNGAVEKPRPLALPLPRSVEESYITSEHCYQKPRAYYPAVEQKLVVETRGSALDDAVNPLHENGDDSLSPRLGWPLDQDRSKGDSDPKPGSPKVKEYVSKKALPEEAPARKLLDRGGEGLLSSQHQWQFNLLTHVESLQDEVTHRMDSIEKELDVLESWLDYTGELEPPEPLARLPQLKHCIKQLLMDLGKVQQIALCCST
UniProt Q9BTC0, whole entry: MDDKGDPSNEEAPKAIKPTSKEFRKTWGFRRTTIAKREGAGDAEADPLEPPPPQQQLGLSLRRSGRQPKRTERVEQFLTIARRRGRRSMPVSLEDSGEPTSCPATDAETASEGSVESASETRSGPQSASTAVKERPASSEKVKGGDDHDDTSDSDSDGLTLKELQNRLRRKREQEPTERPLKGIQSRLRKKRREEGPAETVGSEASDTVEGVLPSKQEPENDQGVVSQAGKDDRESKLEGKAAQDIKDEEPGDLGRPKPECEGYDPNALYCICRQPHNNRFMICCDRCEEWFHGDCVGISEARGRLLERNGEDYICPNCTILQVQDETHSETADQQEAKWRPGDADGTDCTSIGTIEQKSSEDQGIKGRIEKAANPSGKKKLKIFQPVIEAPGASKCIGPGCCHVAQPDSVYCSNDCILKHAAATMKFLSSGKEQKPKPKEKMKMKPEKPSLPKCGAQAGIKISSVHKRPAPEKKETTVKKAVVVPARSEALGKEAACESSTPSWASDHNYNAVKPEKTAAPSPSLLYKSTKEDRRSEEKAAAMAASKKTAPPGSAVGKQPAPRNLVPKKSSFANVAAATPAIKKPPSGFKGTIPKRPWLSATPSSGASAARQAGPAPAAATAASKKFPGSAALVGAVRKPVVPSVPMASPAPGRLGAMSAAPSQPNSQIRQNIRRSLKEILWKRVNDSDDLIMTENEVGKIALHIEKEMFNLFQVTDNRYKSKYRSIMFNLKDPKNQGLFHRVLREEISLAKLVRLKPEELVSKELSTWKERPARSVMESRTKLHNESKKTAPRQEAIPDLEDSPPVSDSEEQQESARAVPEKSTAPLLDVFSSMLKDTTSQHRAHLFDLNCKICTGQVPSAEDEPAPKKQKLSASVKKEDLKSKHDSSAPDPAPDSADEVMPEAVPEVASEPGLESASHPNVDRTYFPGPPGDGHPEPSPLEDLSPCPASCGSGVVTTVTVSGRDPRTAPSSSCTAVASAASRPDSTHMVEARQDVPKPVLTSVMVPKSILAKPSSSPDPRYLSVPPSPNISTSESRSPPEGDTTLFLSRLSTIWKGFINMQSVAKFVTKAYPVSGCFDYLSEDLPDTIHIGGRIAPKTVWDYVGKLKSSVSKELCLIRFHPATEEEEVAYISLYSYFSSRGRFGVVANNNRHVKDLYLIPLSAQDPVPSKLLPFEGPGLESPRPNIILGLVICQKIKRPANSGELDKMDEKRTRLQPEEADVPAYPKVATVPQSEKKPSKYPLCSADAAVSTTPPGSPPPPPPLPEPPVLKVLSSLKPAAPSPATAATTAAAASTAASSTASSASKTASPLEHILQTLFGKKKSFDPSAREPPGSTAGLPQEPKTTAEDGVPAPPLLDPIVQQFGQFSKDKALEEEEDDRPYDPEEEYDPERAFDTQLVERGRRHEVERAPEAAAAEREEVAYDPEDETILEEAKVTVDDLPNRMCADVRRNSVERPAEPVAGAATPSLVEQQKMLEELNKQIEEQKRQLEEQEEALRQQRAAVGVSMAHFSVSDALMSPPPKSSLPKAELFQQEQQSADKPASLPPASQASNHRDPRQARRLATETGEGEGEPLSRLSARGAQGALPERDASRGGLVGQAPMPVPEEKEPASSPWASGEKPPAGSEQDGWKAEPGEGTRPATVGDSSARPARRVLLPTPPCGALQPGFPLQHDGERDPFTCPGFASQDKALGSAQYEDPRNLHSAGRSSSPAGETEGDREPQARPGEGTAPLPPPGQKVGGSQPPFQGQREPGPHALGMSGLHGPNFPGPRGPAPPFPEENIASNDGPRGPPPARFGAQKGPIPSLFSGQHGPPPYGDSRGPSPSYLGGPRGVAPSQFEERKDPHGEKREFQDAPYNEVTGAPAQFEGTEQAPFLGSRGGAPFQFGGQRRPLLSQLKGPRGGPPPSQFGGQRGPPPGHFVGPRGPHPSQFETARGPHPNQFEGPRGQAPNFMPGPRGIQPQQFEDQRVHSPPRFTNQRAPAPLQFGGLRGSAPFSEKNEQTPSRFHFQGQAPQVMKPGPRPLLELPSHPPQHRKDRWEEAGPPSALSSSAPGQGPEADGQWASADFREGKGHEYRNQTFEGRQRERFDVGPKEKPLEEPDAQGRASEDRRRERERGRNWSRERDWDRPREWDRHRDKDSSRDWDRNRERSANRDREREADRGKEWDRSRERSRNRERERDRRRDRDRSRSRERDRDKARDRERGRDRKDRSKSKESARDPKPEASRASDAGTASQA
UniProt Q9BY12: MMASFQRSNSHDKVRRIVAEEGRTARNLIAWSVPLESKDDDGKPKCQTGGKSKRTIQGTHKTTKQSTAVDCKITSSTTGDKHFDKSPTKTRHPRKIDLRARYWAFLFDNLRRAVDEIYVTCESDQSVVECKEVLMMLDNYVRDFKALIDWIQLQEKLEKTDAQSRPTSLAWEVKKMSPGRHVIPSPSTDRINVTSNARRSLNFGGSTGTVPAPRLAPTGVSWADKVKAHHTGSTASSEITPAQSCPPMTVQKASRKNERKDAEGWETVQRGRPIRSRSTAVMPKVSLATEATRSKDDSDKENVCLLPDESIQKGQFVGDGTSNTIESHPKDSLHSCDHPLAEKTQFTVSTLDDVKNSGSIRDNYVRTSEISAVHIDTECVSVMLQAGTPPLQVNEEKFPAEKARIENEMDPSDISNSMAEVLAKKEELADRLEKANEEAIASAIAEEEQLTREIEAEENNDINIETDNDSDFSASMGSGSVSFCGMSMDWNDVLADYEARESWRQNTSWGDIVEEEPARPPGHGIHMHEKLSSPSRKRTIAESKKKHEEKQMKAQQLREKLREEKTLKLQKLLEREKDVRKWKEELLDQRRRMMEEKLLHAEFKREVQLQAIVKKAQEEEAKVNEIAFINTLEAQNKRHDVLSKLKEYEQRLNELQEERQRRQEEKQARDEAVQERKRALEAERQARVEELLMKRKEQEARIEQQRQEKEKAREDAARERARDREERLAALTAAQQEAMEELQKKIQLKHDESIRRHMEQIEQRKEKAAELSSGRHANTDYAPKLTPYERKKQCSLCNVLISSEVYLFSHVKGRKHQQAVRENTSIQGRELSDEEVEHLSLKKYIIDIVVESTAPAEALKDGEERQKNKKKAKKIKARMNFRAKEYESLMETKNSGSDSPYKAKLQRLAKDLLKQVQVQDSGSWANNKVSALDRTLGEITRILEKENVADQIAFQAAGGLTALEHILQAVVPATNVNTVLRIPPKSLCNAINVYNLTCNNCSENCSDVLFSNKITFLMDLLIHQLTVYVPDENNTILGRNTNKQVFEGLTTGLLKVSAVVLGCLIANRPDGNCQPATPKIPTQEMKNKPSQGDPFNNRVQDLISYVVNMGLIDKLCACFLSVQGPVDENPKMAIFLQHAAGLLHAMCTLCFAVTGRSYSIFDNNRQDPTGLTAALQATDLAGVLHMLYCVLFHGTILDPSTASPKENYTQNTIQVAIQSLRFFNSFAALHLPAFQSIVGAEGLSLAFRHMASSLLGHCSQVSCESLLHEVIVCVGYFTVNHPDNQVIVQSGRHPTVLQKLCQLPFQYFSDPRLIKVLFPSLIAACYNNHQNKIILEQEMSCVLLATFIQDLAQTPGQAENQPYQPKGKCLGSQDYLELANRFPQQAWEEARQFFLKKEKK
UniProt Q9BR61: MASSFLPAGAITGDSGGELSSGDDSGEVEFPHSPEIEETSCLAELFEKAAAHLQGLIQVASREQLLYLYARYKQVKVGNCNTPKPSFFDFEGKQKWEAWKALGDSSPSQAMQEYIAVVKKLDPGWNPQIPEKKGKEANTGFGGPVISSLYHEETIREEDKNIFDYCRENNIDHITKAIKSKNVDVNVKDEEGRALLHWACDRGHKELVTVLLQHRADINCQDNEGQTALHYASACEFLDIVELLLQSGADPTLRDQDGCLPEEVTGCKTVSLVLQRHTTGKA

± gives the standard deviation of the averaged measurements. The list shows a part of the results, in another mix than the full data.

Compound in one assay: Nc1ncnc2c1ncn2[C@@H]1O[C@H](COP(=O)(O)OP(=O)(O)OP(=O)(O)O)[C@@H](O)[C@H]1O [adenosine triphosphate]
Kind of assay: NP40-soluble protein abundance relative to vehicle (solubility fold change) (ratio); higher = more soluble protein in presence of ATP. The following applies: concentration: 6mM. In short, it runs like this: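 In three independent experiments, Jurkat crude lysate made by Dounce homogenisation was treated for 10 min at room temperature and then 3 min at 37 °C with eight concentrations ranging from 0.1 to 10 mM. It was then solubilised with 0.8% NP40 plus benzonase for 60 min at 4 °C and ultracentrifuged. The supernatant was TMT-labelled for LC-MS/MS, and each value is the fold change against the detergent-processed vehicle for the same replicate, using vsn-normalised intensities.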
As for UniProt Q9BSI4-2, the NP40-soluble protein abundance amounted to 1.43 ± 0.14.

With UniProt Q9BSH4, the NP40-soluble protein abundance was 0.949 ± 0.029.

With UniProt Q9BY43 and related entries, the NP40-soluble protein abundance was 0.979 ± 0.12.

Consider UniProt Q9BYX2 and related entries, for which the NP40-soluble protein abundance turned out to be 1.06 ± 0.1.

In the case of UniProt Q99538 and related entries, the NP40-soluble protein abundance was determined as 0.929 ± 0.03.

On to PHF20 (UniProt Q9BVI0), for which the NP40-soluble protein abundance was determined as 1.35 ± 0.13.

DIDO1 (UniProt Q9BTC0): the NP40-soluble protein abundance was determined as 1.27 ± 0.072.

Still in this assay, the particulars now being: concentration: 8mM.
As to DOK1 (UniProt Q99704), the NP40-soluble protein abundance is 1.02 ± 0.099.

For UniProt Q9BTY7, the NP40-soluble protein abundance was 1.01 ± 0.066.

On to PARK7 (UniProt Q99497), for which the NP40-soluble protein abundance amounted to 0.894 ± 0.039.

As to UniProt Q99490-2|Q99490, the NP40-soluble protein abundance was 0.885 ± 0.02.

Consider RPAP1 (UniProt Q9BWH6), for which the NP40-soluble protein abundance is 0.985 ± 0.058.

Consider BCL7B (UniProt Q9BQE9), for which the NP40-soluble protein abundance came to 0.957 ± 0.1.

For UniProt Q9BTD8 and related entries, the NP40-soluble protein abundance worked out at 1.2 ± 0.077.

As for UniProt Q9BY12 and related entries, the NP40-soluble protein abundance amounted to 1.28 ± 0.068.

Turning to UBXN6 (UniProt Q9BZV1), the NP40-soluble protein abundance stood at 0.906 ± 0.019.

As to UniProt Q99828 and related entries, the NP40-soluble protein abundance is 0.992 ± 0.056.

Turning to UniProt Q9BUB5 and related entries, the NP40-soluble protein abundance came to 0.991 ± 0.05.

PSMG3 (UniProt Q9BT73): the NP40-soluble protein abundance was 0.896 ± 0.047.

In the case of ACBD6 (UniProt Q9BR61), the NP40-soluble protein abundance is 0.982 ± 0.091.

As for NCAPG (UniProt Q9BPX3), the NP40-soluble protein abundance worked out at 0.974 ± 0.033.

Turning to UniProt Q99707 and related entries, the NP40-soluble protein abundance came to 1.01 ± 0.032.

For SETD2 (UniProt Q9BYW2), the NP40-soluble protein abundance was 1.04 ± 0.033.

For TIPIN (UniProt Q9BVW5), the NP40-soluble protein abundance came to 0.91 ± 0.038.

UniProt Q9BXP5-2|Q9BXP5-3|Q9BXP5-4: the NP40-soluble protein abundance was found to be 1.22 ± 0.038.

On to ARID3A (UniProt Q99856), for which the NP40-soluble protein abundance is 0.97 ± 0.014.

In the case of ACAT2 (UniProt Q9BWD1), the NP40-soluble protein abundance was 0.915 ± 0.048.

Take UniProt Q9BRT2 and related entries: the NP40-soluble protein abundance was 1 ± 0.012.

For PUS3 (UniProt Q9BZE2), the NP40-soluble protein abundance was found to be 1.05 ± 0.042.

Turning to TM9SF2 (UniProt Q99805), the NP40-soluble protein abundance turned out to be 1.06 ± 0.085.

For the target SMAD5 (UniProt Q99717), the NP40-soluble protein abundance came to 1.137 ± 0.0041.

Consider UniProt Q9BTE3 and related entries, for which the NP40-soluble protein abundance is 1.02 ± 0.02.

Consider ADI1 (UniProt Q9BV57), for which the NP40-soluble protein abundance came to 0.948 ± 0.087.

Take THTPA (UniProt Q9BU02): the NP40-soluble protein abundance amounted to 0.954 ± 0.13.

With UniProt Q9BT22 and related entries, the NP40-soluble protein abundance is 0.993 ± 0.045.

For UniProt Q9BSI4-2, the NP40-soluble protein abundance was 1.51 ± 0.12.

On to UniProt Q9BSH4, for which the NP40-soluble protein abundance turned out to be 0.931 ± 0.023.

As to UniProt Q9BY43 and related entries, the NP40-soluble protein abundance came to 1.02 ± 0.045.

Regarding UniProt Q9BYX2 and related entries, the NP40-soluble protein abundance came out at 0.994 ± 0.051.

UniProt Q99538 and related entries: the NP40-soluble protein abundance turned out to be 0.902 ± 0.076.

Turning to PHF20 (UniProt Q9BVI0), the NP40-soluble protein abundance was found to be 1.34 ± 0.085.

DIDO1 (UniProt Q9BTC0): the NP40-soluble protein abundance is 1.23 ± 0.043.

Still in this assay, the particulars now being: concentration: 10mM.
In the case of DOK1 (UniProt Q99704), the NP40-soluble protein abundance turned out to be 1 ± 0.089.

As to UniProt Q9BTY7, the NP40-soluble protein abundance is 0.901 ± 0.11.

Consider PARK7 (UniProt Q99497), for which the NP40-soluble protein abundance worked out at 0.883 ± 0.033.

As for UniProt Q99490-2|Q99490, the NP40-soluble protein abundance was 0.897 ± 0.02.

In the case of RPAP1 (UniProt Q9BWH6), the NP40-soluble protein abundance was found to be 1.03 ± 0.056.

With BCL7B (UniProt Q9BQE9), the NP40-soluble protein abundance was determined as 0.973 ± 0.15.

As to UniProt Q9BTD8 and related entries, the NP40-soluble protein abundance turned out to be 1.24 ± 0.019.

For UniProt Q9BY12 and related entries, the NP40-soluble protein abundance is 1.41 ± 0.032.

Consider UBXN6 (UniProt Q9BZV1), for which the NP40-soluble protein abundance was 0.926 ± 0.038.

Consider UniProt Q99828 and related entries, for which the NP40-soluble protein abundance was found to be 1 ± 0.043.

Consider UniProt Q9BUB5 and related entries, for which the NP40-soluble protein abundance amounted to 0.998 ± 0.043.

Consider PSMG3 (UniProt Q9BT73), for which the NP40-soluble protein abundance turned out to be 0.994 ± 0.015.

Take ACBD6 (UniProt Q9BR61): the NP40-soluble protein abundance turned out to be 0.93 ± 0.048.

For NCAPG (UniProt Q9BPX3), the NP40-soluble protein abundance is 0.967 ± 0.052.

As to UniProt Q99707 and related entries, the NP40-soluble protein abundance turned out to be 0.994 ± 0.048.

Turning to SETD2 (UniProt Q9BYW2), the NP40-soluble protein abundance was 1.06 ± 0.012.

Regarding TIPIN (UniProt Q9BVW5), the NP40-soluble protein abundance came to 0.823 ± 0.089.

In the case of UniProt Q9BXP5-2|Q9BXP5-3|Q9BXP5-4, the NP40-soluble protein abundance came to 1.25 ± 0.033.

With ARID3A (UniProt Q99856), the NP40-soluble protein abundance worked out at 0.97 ± 0.032.

With ACAT2 (UniProt Q9BWD1), the NP40-soluble protein abundance worked out at 0.917 ± 0.03.

For the target UniProt Q9BRT2 and related entries, the NP40-soluble protein abundance came to 0.902 ± 0.11.

PUS3 (UniProt Q9BZE2): the NP40-soluble protein abundance is 1.01 ± 0.049.

Consider TM9SF2 (UniProt Q99805), for which the NP40-soluble protein abundance came to 1 ± 0.033.

On to SMAD5 (UniProt Q99717), for which the NP40-soluble protein abundance is 1.07 ± 0.12.

As for UniProt Q9BTE3 and related entries, the NP40-soluble protein abundance amounted to 1 ± 0.043.

In the case of ADI1 (UniProt Q9BV57), the NP40-soluble protein abundance came out at 0.933 ± 0.065.

As for THTPA (UniProt Q9BU02), the NP40-soluble protein abundance worked out at 0.892 ± 0.11.

Turning to UniProt Q9BT22 and related entries, the NP40-soluble protein abundance is 0.96 ± 0.087.

As to UniProt Q9BSI4-2, the NP40-soluble protein abundance is 1.56 ± 0.2.

UniProt Q9BSH4: the NP40-soluble protein abundance was determined as 0.939 ± 0.012.

As to UniProt Q9BY43 and related entries, the NP40-soluble protein abundance came out at 1.01 ± 0.058.

Consider UniProt Q9BYX2 and related entries, for which the NP40-soluble protein abundance stood at 1.01 ± 0.099.

Consider UniProt Q99538 and related entries, for which the NP40-soluble protein abundance stood at 0.905 ± 0.028.

In the case of PHF20 (UniProt Q9BVI0), the NP40-soluble protein abundance came out at 1.44 ± 0.16.

With DIDO1 (UniProt Q9BTC0), the NP40-soluble protein abundance was determined as 1.31 ± 0.038.
